The values below come from publication PMC7819943, “Rice protein-binding microarrays: a tool to detect cis-acting elements near promoter regions in rice”.

Sequences of proteins named here, by UniProt entry; tags and fusion partners are left off.
UniProt Q0JBA9, entry or part of it: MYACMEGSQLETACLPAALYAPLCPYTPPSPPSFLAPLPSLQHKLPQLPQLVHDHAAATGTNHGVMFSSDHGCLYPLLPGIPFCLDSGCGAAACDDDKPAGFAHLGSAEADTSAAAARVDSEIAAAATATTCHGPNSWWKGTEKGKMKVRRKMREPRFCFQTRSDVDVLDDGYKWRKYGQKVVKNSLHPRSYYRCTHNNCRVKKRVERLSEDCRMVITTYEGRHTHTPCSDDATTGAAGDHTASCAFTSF

This is one part of the list.

For the experiment, the target named is OsWRKY34 (Oryza sativa, UniProt Q0JBA9 1-250). The experiment in a line: protein-binding microarray (RPBM); PBS, 2% BSA, 51.3 ng/ul salmon testes DNA, 50 uM zinc acetate, 200 nM TF, 25 C, 1 h; high values mean tight binding. The conditions noted are these: protein: recombinant; tags: N-terminal polyhistidine and DsRed monomer fusion (pET32a); label: CyDye5-dUTP incorporated in the synthesized complementary strand; 3' TTTTT single-stranded linker to array surface; dsDNA, one strand shown. The method in brief:
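Binding signal is defined as the fluorescence intensity of each feature in arbitrary units, read on an Axon 4000B scanner. Transcription factors with N-terminal polyhistidine and DsRed fusions came from E. coli BL21-CodonPlus and were purified on Ni–NTA. They were incubated at 200 nM for 1 h at 25 °C on a custom Agilent array that had been made double-stranded with Cy5-dUTP, with 50 µM zinc acetate present, and the array was washed.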
“ATATATATATATATATATATATATATATATACACACACACCGGAGTCACCTAGTGCAG”: the binding signal was 22200 fluorescence intensity (a.u.).

“CTCTGACTCTCTGTTCCAATTCCCACACGTTTCTCTCGCGCGGAGTCACCTAGTGCAG”: the binding signal was 14800 fluorescence intensity (a.u.).

For “AAACCCTCGGCCTTTTTTTCTTCCCGAAGCTCCAAGGAATCGGAGTCACCTAGTGCAG”, the binding signal was 8940 fluorescence intensity (a.u.).

For “AATCTTATCTCTATCTCATCTCTCTCCTCTGCCTTATCTCCGGAGTCACCTAGTGCAG”, the binding signal is 13100 fluorescence intensity (a.u.).

Turning to “GTGCTGGAGGGAGGGAACGGGGAACGTGGCAACTGACACGCGGAGTCACCTAGTGCAG”, the binding signal is 9030 fluorescence intensity (a.u.).

Take “TGGTCTGATCTTTTATATGCCACTGAAAATTGGCTCTTTCCGGAGTCACCTAGTGCAG”: the binding signal was 8410 fluorescence intensity (a.u.).

Turning to “ACCAGCCACCTGCCGTTGCAGATTCTACGCGACTCATCGTCGGAGTCACCTAGTGCAG”, the binding signal is 9690 fluorescence intensity (a.u.).

For “TCTTACCCTTGGGACTCATACATCACAATCTCGAATTTAGCGGAGTCACCTAGTGCAG”, the binding signal is 8840 fluorescence intensity (a.u.).

With “GGAATTCAGGGCGTGGTGTAGTGTAAGTAACTTTAAAATTCGGAGTCACCTAGTGCAG”, the binding signal is 8890 fluorescence intensity (a.u.).

For the sequence “CCCTGTACCTGCTTCGCTGTTTTCCCCAACTTGCCAGCTTCGGAGTCACCTAGTGCAG”, the binding signal is 9720 fluorescence intensity (a.u.).

On to “GCCCGGTCTGACCGGTCACATGAAATAACAGCAGTATCCTCGGAGTCACCTAGTGCAG”, for which the binding signal was 8420 fluorescence intensity (a.u.).

Consider “TCATTGCATTTGCTTCTTCTTCCACCTGAGCGCGCGCCGCCGGAGTCACCTAGTGCAG”, for which the binding signal was 8580 fluorescence intensity (a.u.).

As for “GGCGGGGCAGACGGAGGCCGACGGCTGCAGCGGGCTGGGGCGGAGTCACCTAGTGCAG”, the binding signal was 9010 fluorescence intensity (a.u.).

For “AATTTGCATTCTATTTGGTCCTTCATTATTTTTTATTCATCGGAGTCACCTAGTGCAG”, the binding signal is 9540 fluorescence intensity (a.u.).

In the case of “CTTTTCTCCTTCGGCTATAGTGTCACTGTCCTCGCCTTCTCGGAGTCACCTAGTGCAG”, the binding signal was 15700 fluorescence intensity (a.u.).

For “TTGGTACTACAAGCAGATGCAGTTTTCGTTTCTTACTTTTCGGAGTCACCTAGTGCAG”, the binding signal is 9260 fluorescence intensity (a.u.).

“CACTGCATTGCTTTACTCACCAATCTCACGATATGGATCTCGGAGTCACCTAGTGCAG”: the binding signal is 8650 fluorescence intensity (a.u.).

For “TATTCTTCGTTTTTCGCGTGCACGTTTTTCAATCTGCTAGCGGAGTCACCTAGTGCAG”, the binding signal is 9210 fluorescence intensity (a.u.).

“TCGCGCCGCTCTTATATTACGGCGCGCCGCGCTCACCTCGCGGAGTCACCTAGTGCAG”: the binding signal was 8960 fluorescence intensity (a.u.).

For the sequence “ACCACCTACTCTCTCTCTCTCTCTCTCTCATCTCCTGCCTCGGAGTCACCTAGTGCAG”, the binding signal is 12600 fluorescence intensity (a.u.).

For “CTCTCGTAAGATTCACCTACTCTTCTCTCGTCAAATTAACCGGAGTCACCTAGTGCAG”, the binding signal is 9980 fluorescence intensity (a.u.).

Take “GTGCTTTAATCAGTAATTTTGCAATTGCTTTTGAATTTCACGGAGTCACCTAGTGCAG”: the binding signal was 8090 fluorescence intensity (a.u.).

For “TGCACCGTTTTTGTGCGAACATTTACTCCTTTATCCATTACGGAGTCACCTAGTGCAG”, the binding signal was 8420 fluorescence intensity (a.u.).
